# According to PubChem BioAssay AID743266 (National Center for Advancing Translational Sciences (NCATS), 2014):
# Amino acid sequences for entries named in this document (tags omitted). A change or cut given only in a name is not applied to a line headed by its entry.
# UniProt Q03431: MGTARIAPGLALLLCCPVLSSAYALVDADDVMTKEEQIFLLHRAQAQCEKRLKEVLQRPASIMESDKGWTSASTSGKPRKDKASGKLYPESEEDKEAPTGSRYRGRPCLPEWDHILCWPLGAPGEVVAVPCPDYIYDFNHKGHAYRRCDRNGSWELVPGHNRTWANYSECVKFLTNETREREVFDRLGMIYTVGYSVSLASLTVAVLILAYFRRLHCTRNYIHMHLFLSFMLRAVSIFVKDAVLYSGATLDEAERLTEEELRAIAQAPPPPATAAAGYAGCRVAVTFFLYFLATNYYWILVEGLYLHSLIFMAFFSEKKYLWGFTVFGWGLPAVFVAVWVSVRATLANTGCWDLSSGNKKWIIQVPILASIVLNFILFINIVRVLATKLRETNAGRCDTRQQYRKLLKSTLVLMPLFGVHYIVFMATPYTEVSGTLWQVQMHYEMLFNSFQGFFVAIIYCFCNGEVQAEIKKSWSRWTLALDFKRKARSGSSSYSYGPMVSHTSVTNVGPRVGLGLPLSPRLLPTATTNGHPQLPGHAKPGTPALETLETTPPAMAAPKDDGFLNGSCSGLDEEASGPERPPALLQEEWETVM
# Screen size: about 410,000 compounds; about 310 (0.076%) were called active. Inconclusive means that the source gave no clear call. Such entries were picked first, then a sample of the others. Calls come from the whole dose curve; as a rule, active = well fitted activation curve with a large enough effect; inconclusive = small, poorly fitted or top-dose-only effect, or another doubt; inactive = no such curve, though single readings can be large or run the other way. Potencies beside an inconclusive call are fits to weak or partial responses and may not hold up.
# Molecular target: Parathyroid hormone/parathyroid hormone-related peptide receptor (Homo sapiens) (UniProt Q03431)
# Assay: qHTS for PTHR1 Agonists: Primary Screen; note: nearly all actives have a fitted effect of over 55% in size
# Details: HEK293 GP2 PTHR1 cells, GloSensor cAMP luminescence, 1 h; activation: at 115 µM (top of the series) unless noted; series mostly up to 115 µM
# In short: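 HEK-293-derived GP2 cells expressing PTHR1 and a GloSensor cAMP reporter, 3,000/well, plated overnight, given luciferin plus IBMX (each 0.5 mM as added) for 1 h at 37 °C, then compound for 1 h at 37 °C. Luminescence was read after 15 min at room temperature.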
# Potency is the fitted concentration of half-maximal effect.
SMILES,Potency,activation
COc1ccc(C(CC(=O)Nc2cc(Cl)c(OC)cc2OC)N2Cc3ccccc3C2=O)cc1 (centres undefined),"inconclusive: 50.1 µM [activator, partial curve, poor fit]",
COc1cc(C2c3[nH]c4ccccc4c3CC3COC(=O)N32)cc(OC)c1O (centres undefined),inactive,
Cc1cc(C)nc(N2C(=O)CC(Cc3ccccc3)C2=O)n1 (centres undefined),"inconclusive: 2.24 µM [activator, full curve, poor fit]",
C[C@@H](CO)NC(=O)c1ccc2c3n(nc2c1)-c1ccccc1CO3,inactive,
CCN(CC)C(=O)C1CCCN(c2ccc([N+](=O)[O-])cc2/C=N/NC(=O)c2ccc([N+](=O)[O-])cc2)C1 (centres undefined),inactive,
CCC(=O)Nc1cc(-c2cn3cccnc3n2)ccc1OC,"inconclusive: 141 µM [activator, single point]",
CCOC(=O)C1=C(C)N=c2sc(=Cc3cc(Cl)c(OCC(=O)O)c(Cl)c3)c(=O)n2C1c1cccc(OC)c1 (centres undefined),,inconclusive: -64.5% [activator]
Cc1cc(=O)n2[nH]cc(-c3ccccc3)c2n1,"inconclusive: 126 µM [activator, single point]",
O=C(Nc1ccc2ccccc2c1)c1cnccn1,inactive,
O=C1Nc2ccccc2C(O)(C(=O)N2CCCCC2)N1c1ccccc1 (centres undefined),"inconclusive: 79.4 µM [activator, partial curve, poor fit]",
C[C@H](NC(=O)[C@@H]1CSC2c3ccccc3C(=O)N21)C(=O)NCCc1ccc(F)cc1 (some centres undefined),"inconclusive: 11.2 µM [activator, partial curve]",
Cc1ccc(S(=O)(=O)Oc2ccc(/C=C(/NC(=O)c3ccccc3)C(=O)NCC(=O)O)cc2)cc1,,inconclusive: 54.3% [activator]
O=C(OCC(=O)N(Cc1ccccc1)Cc1ccccc1)c1ccccc1NCCO,inactive,
COc1ccc(OC)c([C@@H]2Nc3ccc(C(=O)O)cc3[C@@H]3C=CC[C@@H]32)c1,inactive,
CCCCn1c(SCC(=O)c2ccccc2)nc2sc3c(c2c1=O)CCCC3,inactive,
Cc1ccc(-c2nnc3c4ccccc4c(-c4ccccc4)nn23)cc1,"inconclusive: 50.1 µM [activator, partial curve, poor fit]",
COc1ccc(CCNC(=O)c2ccc3c(c2)nc2n3CCCCC2)cc1OC,inactive,
CCCOC(=O)c1cccc(NC(=O)CSc2nnc3cc(C)c4ccccc4n23)c1,,inconclusive: 51.3% [activator]
N#Cc1nc(COc2ccc(F)cc2)oc1N1CCC(Cc2ccccc2)CC1,,inconclusive: 125% [activator] [at 57.5 µM]
CCCN(CCC)c1ccc(C2N=C(N)Nc3nc4ccccc4n32)cc1 (centres undefined),"inconclusive: 7.94 µM [activator, partial curve, poor fit]",
CCOC(=O)c1c(NC(C)=O)sc2c1CCC(C=NCCCN(CC)CC)=C2Sc1ccccc1,inactive,
Cc1cc(=O)oc2c(C)c(OCC(=O)NCC3CCC(C(=O)O)CC3)ccc12 (centres undefined),"inconclusive: 79.4 µM [activator, single point]",
Cc1cccc(NC(=O)C2CCCN2S(=O)(=O)c2ccc3nc(-c4ccccc4)[nH]c3c2)c1 (centres undefined),inactive,

SMILES,Potency,activation
Cc1ccccc1-c1nc(CN2CCC(C(=O)NCc3ccc(F)cc3)CC2)c(C)o1,inactive,
COc1ccc(OC)c(CNS(=O)(=O)c2cn(C)cn2)c1,inactive,
Cc1ccc(Cn2c(SCCN3CCCCC3)nc3c2c(=O)n(C)c(=O)n3C)cc1,"inconclusive: 39.8 µM [activator, single point]",
Nc1c(C(=O)c2ccc(Cl)cc2)oc2ccccc12,,inconclusive: 33.3% [activator]
O=C(NC1CCCC1)C(c1ccccn1)N(C(=O)c1csnn1)C1CC1 (centres undefined),"inconclusive: 44.7 µM [activator, single point]",
CCN(CC)C(=O)Cn1cc(S(=O)(=O)CC(=O)Nc2cccc(NC(C)=O)c2)c2ccccc21,,inconclusive: 5.4% [activator]
Cc1ccccc1OCC(O)CNC1CCC(NCC(O)COc2ccccc2C)CC1 (centres undefined),"inconclusive: 89.1 µM [activator, partial curve, poor fit]",
CCOc1ccc(NC(=O)NCCN2C(C)CCCC2C)cc1 (centres undefined),,inconclusive: 49.5% [activator] [at 57.5 µM]
COC(=O)C(C)Sc1n[nH]c(=S)s1 (centres undefined),,inconclusive: -37.1% [activator] [at 57.5 µM]
CC1CCN(CCc2nc3cc(NC(=O)Nc4ccccc4)ccc3n2C)CC1,inactive,
O=C(CN1C(=O)c2ccccc2C1=O)OC(C(=O)c1ccc(Cl)cc1)c1ccccc1 (centres undefined),,inconclusive: 36.1% [activator] [at 57.5 µM]
COc1cc(Cl)c(C)cc1Nc1nc2ccccc2c2nnc(C)n12,"inconclusive: 44.7 µM [activator, partial curve, poor fit]",
C/C(=N\NC(=O)c1ccc(OC2CCCC2)cc1)c1ccc(O)cc1,,inconclusive: 59.8% [activator]
COC(=O)C(C)Sc1ccc2nnc(CCNS(=O)(=O)c3ccc(C)cc3)n2n1 (centres undefined),"inconclusive: 141 µM [activator, single point]",
CCCc1cc(=O)[nH]c(SCC(=O)Nc2sc(C(N)=O)c(C)c2C(=O)OCCOC)n1,,inconclusive: 44% [activator]
Brc1ccc(/C=N/Nc2ccccc2)cc1,,inconclusive: -7.69% [activator]
COc1ccccc1NC(=O)c1cc2n(n1)C(C(F)(F)F)CC(c1ccc3c(c1)OCO3)N2 (centres undefined),inactive,
CN(CC(=O)NC(=O)NC(C)(C)C)CC(=O)Nc1ccccc1Cl,"inconclusive: 112 µM [activator, partial curve, poor fit]",
C/C(=N\NC(=O)CN1CCOCC1)C(C)(C)C,inactive,
CCOCC(=O)Nc1ccc([N+](=O)[O-])cc1C,"inconclusive: 5.62 µM [activator, full curve]",
O=C(Nc1ccnn1C1CCN(Cc2ccccc2)CC1)c1ccccc1Cl,"inconclusive: 112 µM [activator, single point]",
CNC(C)C(=O)NC(C(=O)NC(C(=O)Nc1cccc2ccccc12)C(C)C)C(C)C (centres undefined),"inconclusive: 39.8 µM [activator, partial curve, poor fit]",
Cc1cccc(CSc2nnc(CCCCCN)o2)c1,,inconclusive: 72.9% [activator]

# 5 successive compounds from above, for reference:
SMILES,Potency,activation
C/C(=N\NC(=O)CN1CCOCC1)C(C)(C)C,inactive,
CCOCC(=O)Nc1ccc([N+](=O)[O-])cc1C,"inconclusive: 5.62 µM [activator, full curve]",
O=C(Nc1ccnn1C1CCN(Cc2ccccc2)CC1)c1ccccc1Cl,"inconclusive: 112 µM [activator, single point]",
CNC(C)C(=O)NC(C(=O)NC(C(=O)Nc1cccc2ccccc12)C(C)C)C(C)C (centres undefined),"inconclusive: 39.8 µM [activator, partial curve, poor fit]",
Cc1cccc(CSc2nnc(CCCCCN)o2)c1,,inconclusive: 72.9% [activator]

# Carrying on:

SMILES,Potency,activation
COC(=O)Cn1c(=O)c2c(n(Cc3ccccc3)c1=O)N/C(=C/c1ccc(Br)cc1)C2=O,"inconclusive: 141 µM [activator, single point]",
COc1cccc(NC(=O)CSc2nc3c(sc4ccccc43)c(=O)n2CCCN2CCCC2)c1,,inconclusive: 32.8% [activator]
COc1ccc(OC)c(NC(=O)Nc2ccc(Cl)cc2)c1,,inconclusive: 44.3% [activator]
Cc1cc(NC(=O)COC(=O)C(C)Oc2ccc(Cl)cc2Cl)no1 (centres undefined),,inconclusive: 25.3% [activator]
Cc1oc(C)c2c(=O)cc(-c3ccc4c(c3)OCO4)cc(OC(=O)c3cccc(Cl)c3)c12,"inconclusive: 15.8 µM [activator, partial curve, poor fit]",
O=C(NN=Cc1ccccc1C(=O)O)C(=O)NN=Cc1ccccc1C(=O)O,,inconclusive: -52% [activator]
O=C(c1ccccc1)N1CCC(c2nc3c(nnn3Cc3ccco3)c(=O)[nH]2)CC1,,inconclusive: 36.5% [activator]
CC(C)(C)C(=O)Nc1nc2c(s1)CN(Cc1ccccc1)CC2,inactive,
Cc1ccc(NC(=O)c2ccc(CNS(=O)(=O)c3ccc4c(c3)C(C)(C)C(=O)N4C)cc2)cc1F,inactive,
Cc1ccc(NC(=O)Cn2c(=O)c3cccn3c3ccccc32)c(Cl)c1,"inconclusive: 112 µM [activator, single point]",
Cc1ccc(NC2C(=O)NC(=O)NC2=O)cc1,"inconclusive: 50.1 µM [activator, partial curve, poor fit]",
Cn1c(=O)c(C(=O)CN2CCCCC2)c(N)n(Cc2ccccc2)c1=O,"inconclusive: 141 µM [activator, single point]",
COc1ccccc1CNC(=O)COC(=O)c1ccc(S(=O)(=O)N2CCCCC2)cc1,inactive,
CCOC(=O)C1CCN(C(=O)c2cc(C)n(C(C)(C)C)n2)CC1,,inconclusive: -12% [activator]
CCN1CCN(CCCNC(=O)Cn2c(-c3cccs3)cc3cc(F)ccc32)CC1,"inconclusive: 70.8 µM [activator, single point]",
O=C(Nc1nccs1)C1CCCN1S(=O)(=O)c1ccc(F)cc1 (centres undefined),"inconclusive: 44.7 µM [activator, partial curve, poor fit]",
CCOC(=O)N1CCc2c(sc(NCc3cccs3)c2C(=O)Nc2ccc(OC)cc2OC)C1,"inconclusive: 89.1 µM [activator, single point]",
COc1ccc(NC2CCCN(C(=O)c3c(C)noc3C)C2)cc1 (centres undefined),,inconclusive: 43% [activator]
CC(Oc1ccccc1)C(=O)N1CCN(S(=O)(=O)c2ccc(OC(F)(F)F)cc2)CC1 (centres undefined),inactive,
CCn1c(SCc2nc3ccccc3[nH]2)nnc1-c1ccncc1,,inconclusive: 114% [activator] [at 57.5 µM]
CN(CC(=O)Nc1ccc(OC(F)(F)F)cc1)C1CCCCC1,"inconclusive: 112 µM [activator, single point]",
CCCCCCn1nc(C(=O)OCC(=O)c2c(N)n(C)c(=O)n(C)c2=O)c2ccccc2c1=O,inactive,
O=C(Nc1ccccc1F)n1ncc2cc(Cl)ccc21,"inconclusive: 1.41 µM [activator, full curve]",
